Values of other authors as cited in patent publication US20070238696A1, “Dosage unit for cardioprotection” (priority 2000, published 2007).

System: plasma LDL
Conditions: in vivo

## CC(C)c1c(C(=O)Nc2ccccc2)c(-c2ccccc2)c(-c2ccc(F)cc2)n1CC[C@@H](O)C[C@@H](O)CC(=O)O [atorvastatin]
  Maximal plasma LDL reduction: 60%
